Assay results taken from PubChem BioAssay AID330 (DTP/NCI, 2004).
The list is a part of this screen's results and no random one: it gathers tests that were run many times, whatever their T/C, doses with no T/C, and many T/C values between a quarter and a half above the control. Other doses and runs of a compound stand elsewhere. T/C gives the treated animals as a percentage of the vehicle group. Some doses have a count of surviving animals in place of a T/C: the source files T/C as zero there, which appears to mark a toxic dose or a test without result, not a measured value. Some doses without a T/C left all or most animals alive at the check, yet need not have been tolerated: the source hardly ever lists a survival T/C far under the control, and the zero likely stands for such cases as well. Counts of survivors are from the toxicity check (mostly the fifth day) where no day follows; animals may have died later. Schedules are NCI's codes, read here as Q, the interval in days (D) or hours (H), X, the number of doses. Some entries were tested several times; the values are given in rising order. For survival time, this PubChem deposit counts one and a half times the control or more as active, and values a quarter to a half above the control carry no call in these data; other NCI protocols may use other cut-offs. Signs of the kind (2×) count equal records among those shown. Some T/C values carry the count of animals alive at the toxicity check (mostly the fifth day); without a count, all were alive then.

System: P388 leukemia ip, CD2F1 mice, survival T/C
Experiment: NCI In Vivo Anticancer Drug Screen. Data for tumor model P388 Leukemia (intraperitoneal) in CD2F1 (CDF1) mice
Settings: T/C endpoint: median survival time, higher T/C = longer survival
[1] = dose: 25.0 mg/kg/injection, schedule: Q01DX009 (ip), vehicle: saline with Tween-80
[2] = dose: 50.0 mg/kg/injection, schedule: Q01DX009 (ip), vehicle: saline with Tween-80
[3] = dose: 100.0 mg/kg/injection, schedule: Q01DX009 (ip), vehicle: saline with Tween-80
[4] = dose: 200.0 mg/kg/injection, schedule: Q01DX009 (ip), vehicle: saline with Tween-80
[5] = dose: 400.0 mg/kg/injection, schedule: Q01DX009 (ip), vehicle: saline with Tween-80
[6] = dose: 120.0 mg/kg/injection, schedule: Q01DX005 (ip), vehicle: saline with Tween-80
[7] = dose: 240.0 mg/kg/injection, schedule: Q01DX005 (ip), vehicle: saline with Tween-80
[8] = dose: 100.0 mg/kg/injection, schedule: Q01DX009 (ip), vehicle: saline
[9] = dose: 12.5 mg/kg/injection, schedule: Q01DX009 (ip), vehicle: Klucel (hydroxypropylcellulose) (HPC)
[10] = dose: 25.0 mg/kg/injection, schedule: Q01DX009 (ip), vehicle: Klucel (hydroxypropylcellulose) (HPC)
[11] = dose: 200.0 mg/kg/injection, schedule: Q01DX009 (ip), vehicle: saline
[12] = dose: 240.0 mg/kg/injection, schedule: Q01DX005 (ip), vehicle: saline
[13] = dose: 200.0 mg/kg/injection, schedule: Q01DX009 (ip), vehicle: water

Structure (SMILES): COC1=C(OC)C(=O)C(SC/C=C(\C)CCCC(C)CCCC(C)CCCC(C)C)=CC1=O (centres undefined)
- T/C (dose: 12.5 mg/kg/injection, schedule: Q01DX009 (ip), vehicle: saline with Tween-80): 109, 122, 123, 135 % of control
- T/C [1]: 117, 121, 132, 136 % of control
- T/C [2]: 124, 132, 135, 145 % of control
- T/C [3]: 125 (2×) and 136 % of control (2×)
- T/C [4]: 94, 123, 127 % of control
- survivor count [4]: 5 of 6
- T/C [5]: 137 % of control
- survivor count [5]: 1 of 6 and 2 of 6

Structure (SMILES): O=C1CN(c2ccccc2)C(=O)C1C(=O)Nc1ccc(Cl)c(Cl)c1 (centres undefined)
- T/C [6]: 140 and 147 % of control
- survivor count [7]: 6 of 6

Structure (SMILES): COC(=O)c1ccoc1
- T/C [8]: 125 % of control

Structure (SMILES): Nc1nc(N)c2cc(S(=O)(=O)c3cccc(C(F)(F)F)c3)ccc2n1
- T/C [5]: 131 % of control

Structure (SMILES): O=[N+]([O-])c1cc([N+](=O)[O-])c2ccccc2c1NS(=O)(=O)c1ccc(Br)cc1
- T/C [3]: 131 % of control
- T/C [4]: 135 % of control [5 of 6 alive]

Structure (SMILES): C=CCOc1ccccc1N/N=C(\Cl)C(=O)OCC
- survivor count [2]: 5 of 6
- survivor count [3]: 0 of 6 and 3 of 6
- survivor count [4]: 0 of 6

Structure (SMILES): CC(C)CCCC(C)CCOCCN1CCCCC1 (centres undefined)
- survivor count (dose: 100.0 mg/kg/injection, schedule: Q01DX005 (ip), vehicle: saline with Tween-80): 3 of 6
- survivor count (dose: 200.0 mg/kg/injection, schedule: Q01DX005 (ip), vehicle: saline with Tween-80): 0 of 6

Structure (SMILES): Cc1ccc(C)c(N=Nc2ccc(O)cc2)c1
- survivor count (dose: 200.0 mg/kg/injection, schedule: Q04DX003 (ip), vehicle: saline with Tween-80): 1 of 6

Structure (SMILES): C=CCSc1nc2ccc(NCn3c(=S)sc4cc([N+](=O)[O-])ccc43)cc2s1
- survivor count (dose: 400.0 mg/kg/injection, schedule: Q04DX003 (ip), vehicle: Klucel (hydroxypropylcellulose) (HPC)): 0 of 6

Structure (SMILES): COC1=CC(=O)c2ncc(Cl)cc2C1=O
- survivor count [6]: 0 of 6 and 3 of 6
- survivor count [7]: 0 of 6

Structure (SMILES): CC1=C2C(=CC(C)(C)[C@@H]2O)C(=O)[C@](C)(O)C12CC2
- T/C (dose: 0.18 mg/kg/injection, schedule: Q01DX010 (ip), vehicle: saline): 125 % of control

Structure (SMILES): CCN=C(N)Nc1ccc(NC(=O)c2ccc(C(=O)Nc3ccc(NC(N)=NCC)cc3)cc2)cc1
- T/C (dose: 12.5 mg/kg/injection, schedule: Q04DX003 (ip), vehicle: saline with Tween-80): 140 % of control
- survivor count [1]: 6 of 6
- survivor count [2]: 6 of 6
- survivor count (dose: 100.0 mg/kg/injection, schedule: Q04DX003 (ip), vehicle: saline with Tween-80): 6 of 6

Structure (SMILES): O=C1C=CC(=O)C1=Cc1ccc([N+](=O)[O-])cc1
- survivor count (dose: 100.0 mg/kg/injection, schedule: Q04DX002 (ip), vehicle: saline with Tween-80): 0 of 6

Structure (SMILES): O=C(COc1nccc2nc(-c3ccccc3)cn12)c1ccccc1
- survivor count [9]: 6 of 6
- survivor count [10]: 6 of 6
- survivor count (dose: 100.0 mg/kg/injection, schedule: Q01DX001 (ip), vehicle: Klucel (hydroxypropylcellulose) (HPC)): 3 of 6
- survivor count (dose: 200.0 mg/kg/injection, schedule: Q01DX001 (ip), vehicle: Klucel (hydroxypropylcellulose) (HPC)): 0 of 6
- survivor count (dose: 400.0 mg/kg/injection, schedule: Q01DX001 (ip), vehicle: Klucel (hydroxypropylcellulose) (HPC)): 0 of 6

Structure (SMILES): CCOC(=O)C(C)(C(=O)OCC)n1cnc2c1c(=O)n(C)c(=O)n2C
- survivor count (dose: 6.25 mg/kg/injection, schedule: Q01DX009 (ip), vehicle: Klucel (hydroxypropylcellulose) (HPC)): 6 of 6
- survivor count [9]: 6 of 6
- survivor count [10]: 6 of 6

Structure (SMILES): Nc1ccc2[nH]c(=S)[nH]c2c1
- survivor count [2]: 4 of 6
- survivor count [4]: 4 of 6

Structure (SMILES): CCCCCCOc1cccc(OCCCC[N+]2(CC)CCCCC2)c1
- survivor count (dose: 50.0 mg/kg/injection, schedule: Q01DX009 (ip), vehicle: saline): 0 of 6
- survivor count [8]: 0 of 6
- survivor count [11]: 0 of 6

Structure (SMILES): COC(=O)C(C)CSc1ccccc1 (centres undefined)
- survivor count [12]: 0 of 6

Structure (SMILES): Cc1ccc(/C=C/C(=O)C(C)(C)CN(C)CCN(C)C)cc1
- survivor count [12]: 0 of 6

Structure (SMILES): C1CNCCNCCNCCN1
- survivor count [13]: 4 of 6

Structure (SMILES): COc1cc(Br)c(CC(NC=O)c2ccc3c(c2)OCO3)cc1OC (centres undefined)
- survivor count [6]: 6 of 6
- survivor count [7]: 6 of 6

Structure (SMILES): O=C(Nc1ccccc1)c1csc(-c2csc(CCNC(=O)C(F)(F)F)n2)n1
- survivor count (dose: 50.0 mg/kg/injection, schedule: Q01DX009 (ip), vehicle: distilled water + Tween-80): 6 of 6

Structure (SMILES): CC(=O)NN=Nc1ccc(C)cc1
- survivor count (dose: 200.0 mg/kg/injection, schedule: Q01DX005 (ip), vehicle: Klucel (hydroxypropylcellulose) (HPC)): 3 of 6

Structure (SMILES): NC(N)=N/N=C1\C/C(=N\N=C(N)N)c2cc3ccccc3cc21
- survivor count (dose: 200.0 mg/kg/injection, schedule: Q01DX001 (ip), vehicle: saline with Tween-80): 2 of 6
- survivor count (dose: 200.0 mg/kg/injection, schedule: Q01DX001 (ip), vehicle: saline): 0 of 6
- survivor count (dose: 400.0 mg/kg/injection, schedule: Q01DX001 (ip), vehicle: saline): 0 of 6

Structure (SMILES): CN(C)CCNc1ccc(O)c2c1C(=O)c1ccccc1C2=O
- T/C (dose: 80.0 mg/kg/injection, schedule: Q01DX009 (ip), vehicle: distilled water + Tween-80): 135 % of control
- survivor count (dose: 320.0 mg/kg/injection, schedule: Q01DX009 (ip), vehicle: distilled water + Tween-80): 6 of 6

Structure (SMILES): O=C1CC(SC(=S)C2CCCC2=O)C(=O)O1 (centres undefined)
- survivor count [2]: 3 of 6
- survivor count [3]: 2 of 6 and 4 of 6

Structure (SMILES): COc1cccc2c1C(=O)c1c(O)c3c(c(O)c1C2=O)C[C@@](O)(/C(C)=N/NS(C)(=O)=O)C[C@@H]3OC1CC(N)C(O)C(C)O1 (some centres undefined)
- T/C (dose: 6.25 mg/kg/injection, schedule: Q01DX009 (ip), vehicle: saline): 136 % of control
- T/C (dose: 12.5 mg/kg/injection, schedule: Q01DX009 (ip), vehicle: saline): 148 % of control
- survivor count (dose: 50.0 mg/kg/injection, schedule: Q01DX009 (ip), vehicle: water): 6 of 6
- survivor count (dose: 100.0 mg/kg/injection, schedule: Q01DX009 (ip), vehicle: water): 0 of 6 and 1 of 6
- survivor count [13]: 0 of 6

Structure (SMILES): Cc1ccc(S(=O)(=O)OCCN(CCOS(=O)(=O)c2ccc(C)cc2)c2ccc(F)cc2)cc1
- T/C (dose: 2.5 mg/kg/injection, schedule: Q01DX009 (ip), vehicle: other): 131 % of control

Structure (SMILES): O=C1NC(O)c2ccccc2O1 (centres undefined)
- T/C [11]: 137 % of control

Structure (SMILES): c1ccc(N2CCSCC2)cc1
- T/C (dose: 100.0 mg/kg/injection, schedule: Q04DX003 (ip), vehicle: saline): 136 % of control
